Test results reported in patent US6955908B1, “Organism associated with nongonococcal urethritis” (priority 2000, dated 2005).
At least one compound was matched to its structure with a doubt left.

Tested on: SPR (Spiky Rotating Cells)
Assay: Treatment of patients with SPR infection
Format: in vivo, human
Details: oral treatment of patients
Description: My discovery of the novel SPR organism also provides for the treatment of SPR infections in male and female patients. The method involves first diagnosing the SPR infection, and then, upon obtaining a positive diagnosis, administering to the patient an SPR-inhibiting amount of an anti-SPR agent selected from the group consisting of itraconazole, ofloxacin, metronidazole.
One such drug is itraconazole, sold under the trade name SPORANOX®, available from Jansen Pharmaceuticals. The patient ingests one 200 mg tablet per day for three-four weeks.
The patient takes 500 mg twice per day for six weeks.
Yet another drug that is effective in treating SPR infection is ofloxacin, sold under the trade name FLOXIN®. The patient takes 400 mg twice per day for two weeks.

| SMILES | effectiveness in treating infection with SPR |
| --- | --- |
| CC1COc2c(N3CCN(C)CC3)c(F)cc3c(=O)c(C(=O)O)cn1c23 (centres unmarked) [ofloxacin] | effective |
| CCC(C)n1ncn(-c2ccc(N3CCN(c4ccc(OCC5COC(Cn6cncn6)(c6ccc(Cl)cc6Cl)O5)cc4)CC3)cc2)c1=O (centres unmarked) [itraconazole] | effective |
